Results from PubChem BioAssay AID1347076 (National Center for Advancing Translational Sciences (NCATS), 2019).
Hit rate of the full screen: of about 400,000 compounds, about 13,000 (3.2%) were called active. Inconclusive results, whose numbers are uncertain, are shown with a selection of clear calls. The call rests on the fitted dose curve; in most records, active means well fitted cell-killing curve with a large enough effect; inconclusive means small, poorly fitted or top-dose-only effect, or effect the other way; inactive means flat fitted curve, though single readings scatter. Where the call is inconclusive, the potency comes from a doubtful curve fit.

experiment: qHTS assay for MDR1-selective chemotherapeutics: Primary screen using the drug-selected MDR subline cells KB-V1; conditions: KB-V1 MDR cells viability, CellTiter-Glo, 72 h; series mostly up to 46.1 µM; further: nearly all actives have a fitted effect of over 60% in size
Outline: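 Potencies derive from concentration-effect curves fitted to normalized luminescence (CellTiter-Glo) of KB-V1 cells treated for 72 h at 37 degrees C in phenol-red-free DMEM containing 10% FBS.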
Potency means the concentration at half of the fitted maximal effect.

With `Cc1ccc(OCC(=O)NCC(=O)OCc2cc(=O)n3nc(C(C)C)sc3n2)cc1` as the molecule, how does the Potency read?
The Potency was inconclusive: 9.2 µM [rising, partial curve, poor fit].

With `C/C(=N\NC(N)=S)c1ccc2c(c1)OCCO2` as the molecule, how does the Potency read?
Its Potency is inconclusive: 8.2 µM [cytotoxic, partial curve, poor fit].

With `O=c1[nH]c(CN2CCN(c3ccccc3)CC2)nc2scc(-c3ccccc3)c12` as the molecule, how does the Potency read?
Its Potency is active: 9.2 µM.

Which Potency does the source give for `COc1cc(NC(=O)CN2CCCN(Cc3cccc(F)c3)S2(=O)=O)cc(OC)c1` here?
The Potency was “inactive”.

For `Cc1cccc(NC(=O)Cn2c(=O)n(Cc3ccco3)c(=N)c3c4c(sc32)COC(C)(C)C4)c1`, which Potency is on record?
Its Potency is “inactive”.

For `CN(C)/C=C/C(=O)/C=C/c1cn(-c2ncc(C(F)(F)F)cc2Cl)c2ccccc12`, which Potency is on record?
The Potency was inconclusive: 29.1 µM [cytotoxic, single point].

Which Potency does the source give for `CCCc1cc(N2CCN(c3ccccc3F)CC2)n2cnnc2n1` here?
Its Potency is inconclusive: 29.1 µM [cytotoxic, single point].

For `C=CCNc1ncnc2c1cnn2-c1ccc(Cl)cc1`, which Potency is on record?
The Potency was inconclusive: 6.51 µM [cytotoxic, partial curve].

With `CCCCN(CCCC)S(=O)(=O)c1ccc(NC(=O)Cc2cccs2)cc1` as the molecule, how does the Potency read?
Its Potency is active: 5.17 µM.

Which Potency does the source give for `COc1c(C=O)c2c(c(OC)c1OC)-c1ccc(OC)c(=O)cc1C(NC(C)=O)CC2` (centres undefined) here?
Its Potency is inconclusive: 23.1 µM [cytotoxic, partial curve, poor fit].

Which Potency does the source give for `Cc1c(C(=O)N2CCCC2)oc2c1-c1nn(CC(=O)NCCCN3CCCCC3)cc1CC2` here?
The Potency was inconclusive: 18.4 µM [rising, partial curve, poor fit].

For `CCOc1ccc(C(CC(=O)O)NC(=O)COc2ccc3ccccc3c2)cc1OC` (centres undefined), which Potency is on record?
The Potency was inconclusive: 16.4 µM [rising, partial curve, poor fit].

For `CC1(c2nnnn2Cc2ccccc2)CCC(=O)N1CCOc1ccccc1` (centres undefined), which Potency is on record?
Its Potency is inconclusive: 6.51 µM [cytotoxic, partial curve].

Which Potency does the source give for `NC(=O)N=Nc1c(O)[nH]c2ccc([N+](=O)[O-])cc12` here?
Its Potency is “inactive”.

For `N#CC1=C(N)Oc2cc(N)ccc2C1c1ccccc1` (centres undefined), which Potency is on record?
The Potency was inconclusive: 20.6 µM [cytotoxic, single point].

With `Nc1cccc(-c2c[nH]c3ncc(-c4cccnc4)cc23)c1` as the molecule, how does the Potency read?
Its Potency is “inactive”.

With `Nc1ccc(C(=O)OCC(=O)N2c3ccccc3Sc3ccccc32)cc1[N+](=O)[O-]` as the molecule, how does the Potency read?
The Potency was active: 6.51 µM.

For `COc1ccc(-c2cn3cc(C)ccc3n2)cc1F`, which Potency is on record?
The Potency was inconclusive: 29.1 µM [cytotoxic, single point].

Which Potency does the source give for `CC1=C(C(=O)N2CCCCC2)C(c2ccc(Cl)cc2)n2c(nc3ccccc32)N1` (centres undefined) here?
Its Potency is “inactive”.

Which Potency does the source give for `O=C(CN1CCN(S(=O)(=O)c2ccc(Cl)cc2)CC1)NC(=O)NC1CCCCC1` here?
Its Potency is active: 2.31 µM.

Which Potency does the source give for `COc1cc(NC(=O)c2ccccc2-c2ccccc2)cc(OC)c1` here?
The Potency was active: 11.6 µM.

Which Potency does the source give for `CCN(CC)S(=O)(=O)c1ccc2c(c1)oc(=O)n2CC(=O)NC1CCCCC1` here?
The Potency was “inactive”.

For `Cc1cc(C)nc(SCC(=O)c2ccc3c(c2)OCCO3)n1`, which Potency is on record?
The Potency was inconclusive: 14.6 µM [cytotoxic, single point].

With `Cc1cc(-c2nnc(-c3cc4ccccc4oc3=O)o2)c(C)n1-c1ccccc1` as the molecule, how does the Potency read?
The Potency was inconclusive: 10.3 µM [cytotoxic, partial curve, poor fit].

For `COc1ccc(C(=O)/C=C/c2cccs2)c(OC(=O)c2cccc([N+](=O)[O-])c2)c1`, which Potency is on record?
Its Potency is “inactive”.

For `COc1ccc(-c2nc(C)c(CCNC(=O)c3ccc(C(F)(F)F)cc3)s2)cc1OC`, which Potency is on record?
The Potency was inconclusive: 6.51 µM [cytotoxic, partial curve].

For `CC(=O)Nc1cccc(C(=O)OCC(=O)N2CCC(c3ccccc3)=N2)c1`, which Potency is on record?
Its Potency is “inactive”.

With `Cc1cccc(NC(=O)c2oc3c(c2C)C(=O)CC(C)(C)C3)n1` as the molecule, how does the Potency read?
The Potency was inconclusive: 5.8 µM [cytotoxic, partial curve, poor fit].

For `COc1ccc(OC)c(-c2noc(N3CCN(c4cccc(C(F)(F)F)c4)CC3)n2)c1`, which Potency is on record?
The Potency was inconclusive: 25.9 µM [rising, single point].

With `CCCn1c(SCC(=O)Nc2cccc(C(=O)OCC)c2)nnc1-c1ccoc1C` as the molecule, how does the Potency read?
Its Potency is inconclusive: 20.6 µM [cytotoxic, partial curve].

For `Cc1ccc(NC(=O)CCC(=O)NNC(=S)Nc2ccc(F)cc2F)cc1C`, which Potency is on record?
Its Potency is inconclusive: 29.1 µM [rising, single point].

With `O=C(/C=C/c1cccc([N+](=O)[O-])c1)c1ccco1` as the molecule, how does the Potency read?
The Potency was “inactive”.

Which Potency does the source give for `CSc1nc2ccccc2c(=O)n1Cc1ccc(F)cc1` here?
The Potency was inconclusive: 29.1 µM [cytotoxic, single point].

Which Potency does the source give for `S=c1[nH]nc(Cn2cnc3ccccc32)n1-c1ccccc1Cl` here?
The Potency was “inactive”.

Which Potency does the source give for `CN(C)C(CNC(=O)c1ccc2ccccc2n1)c1ccccc1` (centres undefined) here?
Its Potency is inconclusive: 20.6 µM [cytotoxic, partial curve, poor fit].

Which Potency does the source give for `Oc1ccc(Br)cc1/C=N/N1CCN(Cc2cccc3ccccc23)CC1` here?
The Potency was inconclusive: 18.4 µM [cytotoxic, partial curve, poor fit].

For `Cc1ccc(S(=O)(=O)NCCC(=O)NNC(=O)COc2ccccc2Cl)cc1C`, which Potency is on record?
The Potency was inconclusive: 16.4 µM [rising, single point].

For `COc1ccc(C(=O)OCC(=O)Nc2c(C)cccc2C)c(OC)c1OC`, which Potency is on record?
Its Potency is inconclusive: 18.4 µM [cytotoxic, single point].

For `CCCn1c2ccccc2c2cnn(CC(=O)N3CCOCC3)c(=O)c21`, which Potency is on record?
Its Potency is “inactive”.

With `O=C(COc1ccccc1-c1ccccc1)NN=C1CCCC1` as the molecule, how does the Potency read?
The Potency was inconclusive: 29.1 µM [cytotoxic, single point].

For `CCOc1ccc(-c2cc(C(=O)NCCc3ccc(C)cc3)c3ccccc3n2)cc1`, which Potency is on record?
Its Potency is “inactive”.

With `C=CCN(c1ccccc1OC)S(=O)(=O)c1cccc(C(=O)NC2=NCCS2)c1` as the molecule, how does the Potency read?
Its Potency is inconclusive: 20.6 µM [cytotoxic, partial curve, poor fit].

Which Potency does the source give for `Cc1ccc(S(=O)(=O)NCCC(=O)OCC(=O)N(Cc2ccccc2)C(C)(C)C)cc1` here?
Its Potency is “inactive”.

For `CCOC(=O)c1c(C)[nH]c(C)c1C(=O)COC(=O)/C=C/c1cccc(Cl)c1`, which Potency is on record?
The Potency was inconclusive: 20.6 µM [cytotoxic, single point].
